Results on 16 compounds are retold here after PubChem BioAssay AID216 (DTP/NCI, 2004).

The list does not hold the whole screen: it gathers tests that were run many times, whatever their T/C, doses with no T/C, and many T/C values between a quarter and a half above the control. Further doses and runs are listed elsewhere. T/C: endpoint of the treated group in % of that of the vehicle group. Some doses have a count of surviving animals in place of a T/C: the source files T/C as zero there, which appears to mark a toxic dose or a test without result, not a measured value. Some survivor counts are full or nearly so, which does not show that the dose was tolerated: survival well below the control is almost never listed, so the zero probably covers shortened survival too. Survivors were counted at the toxicity check, usually on the fifth day, unless a day is given; later deaths do not show. Schedules are NCI's codes, read here as Q, the interval in days (D) or hours (H), X, the number of doses. Some doses were run more than once; their values stand side by side, smallest first. Some schedules carry Z or #; the key to these is not given. Where survival is the endpoint, the PubChem record calls one and a half times the control and up active, and a quarter to a half above the control has no call in these data; cut-offs in other NCI protocols can differ. Additions like (4×) count equal records among those shown. Some T/C values carry the count of animals alive at the toxicity check (mostly the fifth day); without a count, all were alive then.

This experiment concerns BDF1 mice, P288 leukemia ip, survival T/C. Briefly: NCI In Vivo Anticancer Drug Screen. Data for tumor model P288 Lymphocytic Leukemia (intraperitoneal) in B6D2F1 (BDF1) mice. Particulars: T/C endpoint: survival time, mean or median, higher T/C = longer survival. How it is done: The antitumor activity of compounds was measured in mice bearing transplantable tumors. Survival or tumor size were measured and the results are expressed as the measurement made in the treated group (T) divided by the measurement made in the vehicle treated control group (C). The tumor model used in this assay is P288 Lymphocytic Leukemia (intraperitoneal) in B6D2F1 (BDF1) mice

Where [1] appears, read: dose: 2.5 mg/kg/injection, schedule: Q01DX Z (ip), vehicle: carboxymethylcellulose (CMC).
The mark [2] stands for this setting: dose: 5.0 mg/kg/injection, schedule: Q01DX Z (ip), vehicle: carboxymethylcellulose (CMC).
[3] abbreviates: dose: 10.0 mg/kg/injection, schedule: Q01DX Z (ip), vehicle: carboxymethylcellulose (CMC).
The mark [4] stands for this setting: dose: 200.0 mg/kg/injection, schedule: Q01DX010 (ip), vehicle: saline.
The mark [5] stands for this setting: dose: 15.6 mg/kg/injection, schedule: Q01DX010 (ip), vehicle: saline.
The mark [6] stands for this setting: dose: 25.0 mg/kg/injection, schedule: Q01DX Z (ip), vehicle: carboxymethylcellulose (CMC).

For the compound `O=C(Nc1ccc(C2=NCCN2)cc1)c1cccc(C(=O)Nc2ccc(C3=NCCN3)cc2)c1`, where the note is “dose: 9.4 mg/kg/injection, schedule: Q01DX Z (ip), vehicle: carboxymethylcellulose (CMC)”, the T/C was 137 % of control. Moreover, the survivor count (dose: 150.0 mg/kg/injection, schedule: Q01DX Z (ip), vehicle: carboxymethylcellulose (CMC)) is recorded as 4 of 6.

Turning to `C=CC(CN1CC1)OC(C)=O` (stereo not given), the survivor count runs as follows: (dose: 7.5 mg/kg/injection, schedule: Q01DX Z (ip), vehicle: carboxymethylcellulose (CMC)) 3 of 6; (dose: 15.0 mg/kg/injection, schedule: Q01DX Z (ip), vehicle: carboxymethylcellulose (CMC)) 3 of 6.

For `O=C(Nc1ccc(C2=NCCN2)cc1)c1ccc(C(=O)Nc2ccc(C3=NCCN3)cc2)c(Cl)c1`, the T/C is 128 and 129 % of control (dose: 4.0 mg/kg/injection, schedule: Q01DX010 (ip), vehicle: other); 130 % of control [5 of 6 alive] (dose: 30.0 mg/kg/injection, schedule: Q01DX Z (ip), vehicle: water). Also, the survivor count (dose: 7.5 mg/kg/injection, schedule: Q01DX Z (ip), vehicle: water) is 6 of 6 and the survivor count (dose: 60.0 mg/kg/injection, schedule: Q01DX Z (ip), vehicle: water) is listed as 0 of 6.

With `C[C@]12CC[C@H](OC3OC(CO)C(O)C(O)C3O)C[C@H]1CC[C@@H]1[C@@H]2CC[C@]2(C)[C@@H](C3=CCOC3=O)CC[C@]12O` (stereo not given in full), the survivor count (dose: 8.0 mg/kg/injection, schedule: Q01DX Z (ip), vehicle: saline) is 3 of 6 and the survivor count (dose: 16.0 mg/kg/injection, schedule: Q01DX Z (ip), vehicle: saline) is given as 0 of 6.

On to `Cc1cc2nc3c(=O)[nH]c(=O)nc-3n(CC(O)C(O)C(O)C(O)CO)c2cc1C` (stereo not given), for which the survivor count (dose: 50.0 mg/kg/injection, schedule: Q01DX010 (ip), vehicle: saline) is reported as 5 of 6.

On to `N#Cc1cn(C2OC(CO)C(O)C2O)c2ncnc(N)c12` (stereo not given), for which the T/C (dose: 0.06 mg/kg/injection, schedule: Q01DX Z (ip), vehicle: carboxymethylcellulose (CMC)) is 128 % of control. Besides, the survivor count (dose: 2000.0 micrograms/kg/injection, schedule: Q01DX Z (ip), vehicle: carboxymethylcellulose (CMC)) was 2 of 6.

For the compound `N#[N+]c1cnc([O-])[nH]c1=O`, the T/C is 133 % of control (dose: 1.25 mg/kg/injection, schedule: Q01DX010 (ip), vehicle: saline); 135 % of control (dose: 2.5 mg/kg/injection, schedule: Q01DX010 (ip), vehicle: saline); 137 % of control under setting [1]; 144 and 145 % of control under setting [2]; 142 % of control (dose: 10.0 mg/kg/injection, schedule: Q01DX010 (ip), vehicle: saline); 127 % of control [5 of 6 alive] under setting [3]. Besides, the survivor count is 6 of 6 under setting [2]; 5 of 6 under setting [3]; 0 of 6 and 1 of 6 (dose: 20.0 mg/kg/injection, schedule: Q01DX Z (ip), vehicle: carboxymethylcellulose (CMC)); 0 of 6 (dose: 40.0 mg/kg/injection, schedule: Q01DX Z (ip), vehicle: carboxymethylcellulose (CMC)).

For the compound `CCN(CC)CCNc1ccc(C)c2sc3ccccc3c(=O)c12`, the survivor count is, setting by setting: (dose: 100.0 mg/kg/injection, schedule: Q01DX010 (ip), vehicle: saline) 6 of 6; under setting [4], 5 of 6 and 6 of 6.

With `COS(C)(=O)=O`, under “dose: 50.0 mg/kg/injection, schedule: Q01DX Z (ip), vehicle: water”, the T/C was 131 % of control. The survivor count (dose: 200.0 mg/kg/injection, schedule: Q01DX Z (ip), vehicle: water) was 0 of 6.

Take `CCCCNc1ncnc2c1cnn2C`: the survivor count is on record as 6 of 6 (dose: 1.95 mg/kg/injection, schedule: Q01DX Z (ip), vehicle: carboxymethylcellulose (CMC)); 6 of 6 (dose: 3.9 mg/kg/injection, schedule: Q01DX Z (ip), vehicle: carboxymethylcellulose (CMC)); 6 of 6 (dose: 7.8 mg/kg/injection, schedule: Q01DX Z (ip), vehicle: carboxymethylcellulose (CMC)); 6 of 6 under setting [5]; 6 of 6 (dose: 15.6 mg/kg/injection, schedule: Q01DX Z (ip), vehicle: carboxymethylcellulose (CMC)); 6 of 6 (dose: 31.2 mg/kg/injection, schedule: Q01DX Z (ip), vehicle: carboxymethylcellulose (CMC)). The survivor count is 6 of 6 (dose: 62.5 mg/kg/injection, schedule: Q01DX Z (ip), vehicle: carboxymethylcellulose (CMC)) and 4 of 6 (dose: 125.0 mg/kg/injection, schedule: Q01DX Z (ip), vehicle: carboxymethylcellulose (CMC)). The T/C under setting [5] is on record as 88, 90, 100 % of control; the T/C (dose: 31.3 mg/kg/injection, schedule: Q01DX010 (ip), vehicle: saline) is 94, 100 (2×), 105 % of control; the T/C (dose: 62.5 mg/kg/injection, schedule: Q01DX010 (ip), vehicle: saline) is 95, 100, 105 % of control (2×); the T/C (dose: 125.0 mg/kg/injection, schedule: Q01DX010 (ip), vehicle: saline) is 88 [5 of 6 alive], 90 [5 of 6 alive], 94 % of control [5 of 6 alive] (2×).

With `COc1cc2c(c(OC)c1OC)-c1ccc(N)c(=O)cc1[C@@H](NC(C)=O)CC2`, the T/C is 142 % of control (dose: 0.25 mg/kg/injection, schedule: Q01DX010 (ip), vehicle: saline) and 141 % of control (dose: 0.5 mg/kg/injection, schedule: Q01DX010 (ip), vehicle: saline).

In the case of `CN(C)/N=N/c1nc[nH]c1C(N)=O`, the T/C reads like this: under setting [4], 138 % of control; (dose: 400.0 mg/kg/injection, schedule: Q01DX010 (ip), vehicle: saline) 127 % of control [5 of 6 alive].

Turning to `CSc1ncnc2c1ncn2C1OC(CO)C(O)C1O` (stereo not given), the survivor count is, setting by setting: (dose: 6.25 mg/kg/injection, schedule: Q01DX Z (ip), vehicle: carboxymethylcellulose (CMC)) 6 of 6; (dose: 12.5 mg/kg/injection, schedule: Q01DX Z (ip), vehicle: carboxymethylcellulose (CMC)) 4 of 6; under setting [6], 6 of 6; (dose: 50.0 mg/kg/injection, schedule: Q01DX Z (ip), vehicle: carboxymethylcellulose (CMC)) 2 of 6. Also, under setting [6], the T/C was 128 % of control.

On to `Nc1ncnc2c1ccn2C1OC(CO)C(O)C1O` (stereo not given), for which the survivor count is 5 of 6 (dose: 1.25 mg/kg/injection, schedule: Q01DX Z (ip), vehicle: carboxymethylcellulose (CMC)); 6 of 6 under setting [1]; 2 of 6 under setting [2].

As for `Nc1nc2n[nH]nc2c(=O)[nH]1`, the T/C runs as follows: (dose: 25.0 mg/kg/injection, schedule: Q01DX Z (ip), vehicle: other) 149 % of control; (dose: 50.0 mg/kg/injection, schedule: Q01DX010 (ip), vehicle: alkali diluted with saline) 133 % of control; (dose: 50.0 mg/kg/injection, schedule: Q01DX Z (ip), vehicle: other) 141 % of control; (dose: 200.0 mg/kg/injection, schedule: Q01DX010 (ip), vehicle: alkali diluted with saline) 144 % of control; (dose: 400.0 mg/kg/injection, schedule: Q01DX Z (ip), vehicle: other) 131 % of control. For the same compound, the survivor count runs as follows: (dose: 100.0 mg/kg/injection, schedule: Q01DX010 (ip), vehicle: alkali diluted with saline) 0 of 6; (dose: 800.0 mg/kg/injection, schedule: Q01DX Z (ip), vehicle: alkali diluted with CMC) 1 of 6; (dose: 1600.0 mg/kg/injection, schedule: Q01DX Z (ip), vehicle: alkali diluted with CMC) 0 of 6.

Take `CC1CCOS(=O)O1` (stereo not given): where the note is “dose: 80.0 mg/kg/injection, schedule: Q01DX010 (ip), vehicle: saline”, the survivor count is 6 of 6.
